The list shows only some results of the screen, not a fair sample: it gathers tests that were run many times, whatever their T/C, doses with no T/C, and many T/C values between a quarter and a half above the control. Further doses and runs are listed elsewhere. T/C: endpoint of the treated group in % of that of the vehicle group. Some doses have a count of surviving animals in place of a T/C: the source files T/C as zero there, which appears to mark a toxic dose or a test without result, not a measured value. Some doses without a T/C left all or most animals alive at the check, yet need not have been tolerated: the source hardly ever lists a survival T/C far under the control, and the zero likely stands for such cases as well. Counts of survivors are from the toxicity check (mostly the fifth day) where no day follows; animals may have died later. Schedule codes are those of the source, read here as Q, the interval in days (D) or hours (H), X, the number of doses. Some doses were run more than once; the results are listed from low to high. For survival time, the PubChem record calls one and a half times the control and up active, and a quarter to a half above the control has no call in these data; cut-offs in other NCI protocols can differ. Some molecules as drawn cover several salts, stereoisomers or complexes of the source; a dose is that of the sample tested. Some T/C values are followed by the survivors on the day toxicity was checked, most often the fifth; without a count, all were alive then.
System: CD2F1 mice, L1210 leukemia ip, survival T/C
Assay: NCI In Vivo Anticancer Drug Screen. Data for tumor model L1210 Leukemia (intraperitoneal) in CD2F1 (CDF1) mice
Conditions: higher T/C = longer survival
Procedure, shortened: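 Vehicle-treated tumor-bearing mice served as controls (C) for compound-treated mice (T). Reported figure is T divided by C.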

[1] = T/C endpoint: mean survival time, dose: 20.0 mg/kg/injection, schedule: Q04DX003 (ip), vehicle: saline with Tween-80
[2] = T/C endpoint: mean survival time, dose: 200.0 mg/kg/injection, schedule: Q04DX003 (ip), vehicle: other
[3] = T/C endpoint: mean survival time, dose: 100.0 mg/kg/injection, schedule: Q01DX009 (ip), vehicle: Klucel (hydroxypropylcellulose) (HPC)
[4] = T/C endpoint: mean survival time, dose: 200.0 mg/kg/injection, schedule: Q01DX009 (ip), vehicle: Klucel (hydroxypropylcellulose) (HPC)

Cc1c2ccncc2c(C)c2c1[nH]c1ccccc12
T/C (T/C endpoint: mean survival time, dose: 3.13 mg/kg/injection, schedule: Q01DX009 (ip), vehicle: other): 130 % of control | T/C (T/C endpoint: mean survival time, dose: 3.13 mg/kg/injection, schedule: Q01DX009 (ip), vehicle: saline): 140 % of control | T/C (T/C endpoint: mean survival time, dose: 4.0 mg/kg/injection, schedule: Q01DX009 (ip), vehicle: saline with Tween-80): 130 % of control | T/C (T/C endpoint: mean survival time, dose: 6.25 mg/kg/injection, schedule: Q01DX009 (ip), vehicle: saline): 147 % of control | T/C (T/C endpoint: mean survival time, dose: 6.25 mg/kg/injection, schedule: Q04DX003 (ip), vehicle: saline): 135 % of control | T/C (T/C endpoint: mean survival time, dose: 8.0 mg/kg/injection, schedule: Q01DX009 (ip), vehicle: saline with Tween-80): 126, 133, 135 % of control | T/C (T/C endpoint: mean survival time, dose: 10.0 mg/kg/injection, schedule: Q01DX009 (ip), vehicle: saline with Tween-80): 147 % of control | T/C (T/C endpoint: mean survival time, dose: 10.0 mg/kg/injection, schedule: Q04DX003 (ip), vehicle: saline with Tween-80): 130 % of control | T/C (T/C endpoint: mean survival time, dose: 12.5 mg/kg/injection, schedule: Q01DX009 (oral), vehicle: other): 131 % of control | T/C (T/C endpoint: mean survival time, dose: 12.5 mg/kg/injection, schedule: Q01DX009 (oral), vehicle: water): 129 % of control | T/C (T/C endpoint: mean survival time, dose: 12.5 mg/kg/injection, schedule: Q04DX003 (ip), vehicle: distilled water + Tween-80): 138 % of control | T/C (T/C endpoint: mean survival time, dose: 12.5 mg/kg/injection, schedule: Q04DX003 (ip), vehicle: other, evaluated on day 30): 123, 125, 127 % of control | T/C (T/C endpoint: mean survival time, dose: 12.5 mg/kg/injection, schedule: Q04DX003 (ip), vehicle: other, evaluated on day 60): 129 % of control | T/C (T/C endpoint: mean survival time, dose: 12.5 mg/kg/injection, schedule: Q04DX003 (ip), vehicle: saline): 136 % of control | T/C (T/C endpoint: mean survival time, dose: 16.0 mg/kg/injection, schedule: Q01DX009 (ip), vehicle: saline with Tween-80): 138, 145, 148 % of control | T/C [1]: 143 % of control | T/C (T/C endpoint: mean survival time, dose: 25.0 mg/kg/injection, schedule: Q01DX009 (oral), vehicle: saline): 139 % of control | T/C (T/C endpoint: mean survival time, dose: 25.0 mg/kg/injection, schedule: Q04DX003 (ip), vehicle: distilled water + Tween-80): 136 % of control | T/C (T/C endpoint: mean survival time, dose: 25.0 mg/kg/injection, schedule: Q04DX003 (ip), vehicle: other, evaluated on day 30): 126, 138, 141 % of control | T/C (T/C endpoint: mean survival time, dose: 25.0 mg/kg/injection, schedule: Q04DX003 (ip), vehicle: other, evaluated on day 60): 189 % of control | T/C (T/C endpoint: mean survival time, dose: 25.0 mg/kg/injection, schedule: Q04DX003 (ip), vehicle: saline with Tween-80): 138 % of control | T/C (T/C endpoint: mean survival time, dose: 25.0 mg/kg/injection, schedule: Q04DX003 (oral), vehicle: other): 125 % of control | T/C (T/C endpoint: mean survival time, dose: 25.0 mg/kg/injection, schedule: Q04DX003 (oral), vehicle: water): 131 % of control | T/C (T/C endpoint: mean survival time, dose: 32.0 mg/kg/injection, schedule: Q01DX009 (ip), vehicle: saline with Tween-80): 130 and 143 % of control | T/C (T/C endpoint: mean survival time, dose: 40.0 mg/kg/injection, schedule: Q01DX001 (ip), vehicle: water): 129 % of control | T/C (T/C endpoint: mean survival time, dose: 40.0 mg/kg/injection, schedule: Q01DX009 (ip), vehicle: saline with Tween-80): 132 % of control | T/C (T/C endpoint: mean survival time, dose: 50.0 mg/kg/injection, schedule: Q01DX009 (oral), vehicle: other): 125 % of control [9 of 10 alive] | T/C (T/C endpoint: mean survival time, dose: 50.0 mg/kg/injection, schedule: Q04DX003 (ip), vehicle: distilled water + Tween-80): 148 % of control | T/C (T/C endpoint: mean survival time, dose: 50.0 mg/kg/injection, schedule: Q04DX003 (ip), vehicle: other, evaluated on day 30): 149, 155, 161 % of control | T/C (T/C endpoint: mean survival time, dose: 50.0 mg/kg/injection, schedule: Q04DX003 (ip), vehicle: other, evaluated on day 60): 180 % of control | T/C (T/C endpoint: mean survival time, dose: 50.0 mg/kg/injection, schedule: Q04DX003 (ip), vehicle: water): 133 % of control [9 of 10 alive] | T/C (T/C endpoint: mean survival time, dose: 50.0 mg/kg/injection, schedule: Q04DX003 (oral), vehicle: other): 134 % of control | T/C (T/C endpoint: mean survival time, dose: 50.0 mg/kg/injection, schedule: Q04DX003 (oral), vehicle: saline): 140 % of control | survivor count (T/C endpoint: mean survival time, dose: 100.0 mg/kg/injection, schedule: Q01DX009 (ip), vehicle: other): 5 of 10 | T/C (T/C endpoint: mean survival time, dose: 100.0 mg/kg/injection, schedule: Q01DX009 (ip), vehicle: saline): 129 % of control | survivor count (T/C endpoint: mean survival time, dose: 100.0 mg/kg/injection, schedule: Q01DX009 (ip), vehicle: water): 7 of 10 | survivor count (T/C endpoint: mean survival time, dose: 100.0 mg/kg/injection, schedule: Q01DX009 (oral), vehicle: other): 10 of 10 | survivor count (T/C endpoint: mean survival time, dose: 100.0 mg/kg/injection, schedule: Q01DX009 (oral), vehicle: water): 10 of 10 | survivor count (T/C endpoint: mean survival time, dose: 100.0 mg/kg/injection, schedule: Q04DX003 (ip), vehicle: water): 9 of 10 | survivor count (T/C endpoint: mean survival time, dose: 160.0 mg/kg/injection, schedule: Q01DX001 (ip), vehicle: water): 6 of 6 | survivor count (T/C endpoint: mean survival time, dose: 200.0 mg/kg/injection, schedule: Q01DX009 (oral), vehicle: other): 6 of 10 | survivor count (T/C endpoint: mean survival time, dose: 200.0 mg/kg/injection, schedule: Q01DX009 (oral), vehicle: saline): 10 of 10 | survivor count (T/C endpoint: mean survival time, dose: 200.0 mg/kg/injection, schedule: Q01DX009 (oral), vehicle: water): 8 of 10 | T/C [2]: 126 % of control | survivor count [2]: 4 of 10 | T/C (T/C endpoint: mean survival time, dose: 200.0 mg/kg/injection, schedule: Q04DX003 (ip), vehicle: saline): 147 % of control | survivor count (T/C endpoint: mean survival time, dose: 200.0 mg/kg/injection, schedule: Q04DX003 (ip), vehicle: water): 5 of 10 | survivor count (T/C endpoint: mean survival time, dose: 200.0 mg/kg/injection, schedule: Q04DX003 (oral), vehicle: other): 9 of 10 | survivor count (T/C endpoint: mean survival time, dose: 200.0 mg/kg/injection, schedule: Q04DX003 (oral), vehicle: water): 4 of 10 and 10 of 10 | survivor count (T/C endpoint: mean survival time, dose: 240.0 mg/kg/injection, schedule: Q01DX001 (ip), vehicle: water): 0 of 6 | survivor count (T/C endpoint: mean survival time, dose: 400.0 mg/kg/injection, schedule: Q04DX003 (oral), vehicle: other): 7 of 10 | survivor count (T/C endpoint: mean survival time, dose: 400.0 mg/kg/injection, schedule: Q04DX003 (oral), vehicle: saline): 10 of 10 | survivor count (T/C endpoint: mean survival time, dose: 400.0 mg/kg/injection, schedule: Q04DX003 (oral), vehicle: water): 2 of 10 and 8 of 10 | T/C (T/C endpoint: median survival time, dose: 40.0 mg/kg/injection, schedule: Q01DX001 (ip), vehicle: water): 142 % of control | survivor count (T/C endpoint: median survival time, dose: 160.0 mg/kg/injection, schedule: Q01DX001 (ip), vehicle: water): 1 of 6

C1=C(c2ccc(-c3ccccc3)cc2)Nc2ccccc2S1
survivor count (T/C endpoint: mean survival time, dose: 400.0 mg/kg/injection, schedule: Q04DX002 (ip), vehicle: other): 0 of 3

CC(O)C(=O)[O][Hg][c]1ccccc1 (configuration not stated)
survivor count [1]: 6 of 6 | survivor count (T/C endpoint: mean survival time, dose: 40.0 mg/kg/injection, schedule: Q04DX003 (ip), vehicle: saline with Tween-80): 0 of 6

CC(=O)OCCN1CCN(CCCN2c3ccccc3Sc3ccc(C(F)(F)F)cc32)CC1
T/C (T/C endpoint: mean survival time, dose: 9.0 mg/kg/injection, schedule: Q03HX024 (ip), vehicle: saline): 132 % of control | T/C (T/C endpoint: mean survival time, dose: 50.0 mg/kg/injection, schedule: Q01DX001 (ip), vehicle: saline): 129 % of control [5 of 6 alive]

CN(C)C=C1C(=O)NC(=O)NC1=O
survivor count (T/C endpoint: mean survival time, dose: 400.0 mg/kg/injection, schedule: Q01DX001 (ip), vehicle: saline): 0 of 6

CN(CCOS(C)(=O)=O)CCOS(C)(=O)=O
T/C (T/C endpoint: mean survival time, dose: 1.5 mg/kg/injection, schedule: Q01DX001 (ip), vehicle: saline): 149 % of control | survivor count (T/C endpoint: mean survival time, dose: 3.0 mg/kg/injection, schedule: Q01DX001 (ip), vehicle: saline): 1 of 4 | T/C (T/C endpoint: mean survival time, dose: 3.37 mg/kg/injection, schedule: Q01DX001 (ip), vehicle: saline): 132 % of control | survivor count (T/C endpoint: mean survival time, dose: 6.0 mg/kg/injection, schedule: Q01DX001 (ip), vehicle: saline): 0 of 4

O=S1(=O)CC(Cl)(Br)C1 (tested in a mixture with another compound)
survivor count [3]: 6 of 6 | survivor count [4]: 4 of 6 | survivor count (T/C endpoint: mean survival time, dose: 400.0 mg/kg/injection, schedule: Q01DX009 (ip), vehicle: Klucel (hydroxypropylcellulose) (HPC)): 6 of 6

COC(=O)C(Br)C1CCCCC1 (configuration not stated)
survivor count (T/C endpoint: mean survival time, dose: 400.0 mg/kg/injection, schedule: Q04DX003 (ip), vehicle: saline with Tween-80): 3 of 6

O=C(Nc1ccc(Cl)cc1)c1cccc([N+](=O)[O-])c1O
survivor count (T/C endpoint: mean survival time, dose: 50.0 mg/kg/injection, schedule: Q01DX009 (ip), vehicle: Klucel (hydroxypropylcellulose) (HPC)): 0 of 3 | survivor count [3]: 0 of 3 | survivor count [4]: 0 of 3

From PubChem BioAssay AID256 (DTP/NCI, 2004)
